Measured data: PubChem BioAssay AID602196 (INSERM, 2012)
Shown is an unselected part of about 23,000 deposited reagents. Over the whole deposit, 455 (2%) were called active. 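Active includes both protection and sensitisation; some change values fall well beyond the stated -50 to +50 range.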 Unmarked entries are inactive. Not stated in the record: the amount of reagent.

Purpose: 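Modifiers of cisplatin sensitivity in A549 cells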
Cells: human A549 lung cancer cells
Reagent: siRNA pair against human genes
Timing: 48 h transfection before cisplatin; time from cisplatin to read-out not stated
Challenge: cisplatin at a dose killing half of control-siRNA cells; exact dose and duration not given
Read-out: 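Cisplatin cell death as a shift from the 50% death seen with control siRNA; siRNAs toxic or growth-blocking alone scored 0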
Direction: two-siRNA summed score (-2 to +2): higher = both siRNAs protect from cisplatin killing; -2 means both sensitise; mean protection from cisplatin (shift in death) and protection from cisplatin (shift in death), siRNA C and protection from cisplatin (shift in death), siRNA D: higher = protection from cisplatin killing
Call rule: 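siRNAs harmful alone (LDH or WST-1) get 0; others get +1 for less and -1 for more cisplatin killing; genes are active when the two siRNAs give the same sign, summing to ±2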
Calls: active = both siRNAs shift cisplatin killing the same way; inactive = no consistent shift, or siRNA harmful alone

target | two-siRNA summed score (-2 to +2) | mean protection from cisplatin (shift in death) (%) | protection from cisplatin (shift in death), siRNA C (%) | protection from cisplatin (shift in death), siRNA D (%)
TMEM176B | 0 | 3.1 | 8.5 | -2.3
LOC440930 | 0 | 11.3 | 20 | 2.6
AHR | 0 | 5.3 | 1.1 | 9.6
CYP21A2 | 0 | -20 | -30.2 | -9.9
ENDOV | 0 | 4.4 | 28.5 | -19.8
FLJ35785 | 0 | 9.6 | 8.9 | 10.3
WDR87 | 0 | 12.1 | 13.7 | 10.5
MAPK8 | 1 | 4.7 | 16.4 | -6.9
LOC401072 | 1 | 10.4 | 2.9 | 17.8
LOC441010 | 0 | 0.5 | 6.5 | -5.6
LOC441825 | 1 | 20.1 | 12 | 28.1
MYOZ2 | 0 | 2.2 | -4.3 | 8.8
TTC31 | -1 | -10.4 | -17.3 | -3.6
MOK | 0 | -4.2 | -9.1 | 0.8
RHO | 0 | 2.7 | -2.4 | 7.8
LOC441733 | 0 | 15.3 | 7.6 | 23.1
TMEM257 (retired record) | 0 | -4.9 | 3.5 | -13.2
IL6 | 1 | 14.3 | 15.9 | 12.8
ZNF322 | 0 | 8.1 | 10.6 | 5.6
LRRC37BP1 | 0 | 12.3 | 10.6 | 14.1
MON1A | 0 | -1.7 | 6.5 | -10
DNM1P5 | 1 | 23.3 | 9.3 | 37.3
INTS7 | 0 | 5 | -6.2 | 16.2
